Source: patent US12419897B2 (President and Fellows of Harvard College, priority 2018, dated 2025)
For at least one compound, name, drawing or mass did not settle the structure.

System: SULT2A1
Experiment: Induction of SULT2A1 in HepG2 cells
Assay type: cell-based
Settings: HepG2, all concentrations tested

Structure (SMILES): C[C@H](CCC(=O)O)[C@H]1CC[C@H]2[C@@H]3CC[C@@H]4C[C@H](O)CC[C@]4(C)[C@H]3CC[C@]12C [LCA, lithocholic acid]
- induction of SULT2A1: induced SULT2A1
